The target of test [1] is RcpC lacking the L3 linker and the β-hairpin region (RcpC_(33-233)) (Pseudomonas aeruginosa) (UniProt Q9HW95). Nature of the test: SEC; single purified protein on Superose 6 Increase 10/300 GL, 50 mM HEPES, 150 mM NaCl, 200 mM arginine, 1 mM TCEP, pH 8.0; both purified.
The target is the same in test [2]. The experiment in a line: SEC-MALS; single purified protein; 50 uL at 2 mg/mL on a WTC 015S5 column, 50 mM HEPES, 150 mM NaCl, 200 mM arginine, 1 mM TCEP, pH 8.0, 0.8 mL/min; both purified. Background: Size exclusion chromatography separates by hydrodynamic size, large species first.

Results are given in words; binding and its absence hold for the method and conditions named.

“RcpC lacking the L3 linker and the β-hairpin region (RcpC_(33-233)) (from UniProt Q9HW95 33-233) (domain or fragment)”: the binding result in test [1] and in test [2] was “no binding” throughout.

The values are drawn from publication PMC12307814, “The structure of the Tad pilus alignment complex reveals a periplasmic conduit for pilus extension” (Nature Communications, 2025).
